Test results: patent US6441029B1, “Method of suppressing tumor growth with combinations of isoprenoids and statins” (Wisconsin Alumni Research Foundation, priority 1997, dated 2002)
Like-named read-outs stand apart in the source and are kept apart here. Some of these results come from one statement about several compounds together. At least one compound was matched to its structure with a doubt left. Some ranges recur; such a range may be that of the whole group of compounds.

System: Murine B16(F10) melanoma cells
Assay: IC50 determinations: net increase in 48 hour melanoma cell count
Format: cell-based
Conditions: 48 hour incubation, means ± SD, read-out: IC50: concentration required to suppress the increase in the population of melanoma cells by 50% during a 48 hour incubation
Method: Cultures, seeded with 1-1.5×10^5 cells, were incubated for 24 hours at 37° C. in a humidified atmosphere of 5% CO2. Isoprenoids, dissolved in absolute ethanol, were added at 24 hours (0 time); all cultures contained 5 mL ethanol/L ([…]). The cultures were incubated for an additional 48 hours. The media was removed and the monolayers were washed twice with Hanks' Balanced Salt Solution (Sigma) and then incubated with a trypsin-EDTA solution (Sigma) at 37° C. for 2 minutes. Trypsin was inactivated by suspending the cells in medium containing 10% fetal bovine serum (Sigma). The cells were pelleted at 250×g and resuspended in Hanks' Balanced Salt Solution. Viable cells, cells that excluded 0.4% trypan blue (GIPCOBRL), were counted with a hemocytometer; 24 hour cell counts were deducted from final cell counts to provide an estimate of the net increase in cell number.
FIG. 1 is a representative evaluation of the dose-dependent impact of five different tocols on the proliferation of melanoma B16 cells. Cultures (3 mL) seeded with 1-1.5×10^5 cells were incubated for 24 hours prior to the introduction of the tocols. Viable cells were counted at 48 hours following the addition of the tocols. The cell count at 24 hours (0 time) is shown by the dashed line. The intersection of the solid horizontal line and the line plotted for each tocol indicates the concentration at which the tocol suppressed by 50% the increase in cell number during the incubation (IC50 value). IC50 values (mean, SD and n) for all isoprenoids tested are listed on Table 1. […] The growth-suppressive potency of the individual tocotrienols was inverse to the number of methyl groups on the 6-chromanol ring: d-α-tocotrienol (methyl groups at carbons 5, 7, 8 and 2)<<d-γ-tocotrienol (methyl groups at carbons 7, 8 and 2)<d-δ-tocotrienol (methyl groups at carbons 8 and 2)<<d-2-desmethyl tocotrienol (no methyl groups) (Table 1).

CC(C)=CCC/C(C)=C/CO [Geraniol, trans 3,7-dimethyl-2,6-octadien-1-ol]
IC50 (listed as geraniol): 120 to 150 µM

Cc1ccc(C(C)C)c(O)c1 [Thymol, 5-methyl-2-isopropylphenol]
IC50 (listed as thymol): 120 to 150 µM

CC(=O)C=CC1=C(C)CCCC1(C)C [β-Ionone]
IC50 (listed as β-ionone): 120 to 150 µM
